The values below come from PMC7413516, “Antidepressant-like activity and safety profile evaluation of 1H-imidazo[2,1-f]purine-2,4(3H,8H)-dione derivatives as 5-HT1A receptor partial agonists” (PLoS ONE, 2020).

A short description of data set [1]: Pharmacokinetic study in mice, plasma and brain structures, LC/MS/MS. Format: in vivo, Swiss albino mice. The following applies: 0.625 mg/kg i.p. The method, then: Blood samples from the Swiss albino mice were collected at 0 (pre-dose), 5, 15, 30, 60, 120, 240 and 480 min after a compound administration. The blood samples and brain structures were collected under general anesthesia induced by i.p. injection of 50 mg/kg ketamine plus 8 mg/kg xylazine. The blood samples were taken into heparinized tubes, immediately centrifuged at 1000 × g for 10 min, and plasma was collected. The plasma samples and brain structures were immediately frozen at -30°C and -80°C, respectively.
The plasma and tissue sample pretreatment procedure involved acetonitrile precipitation. A 5 μL aliquot of the IS working solution (100 ng/mL) was added to 50 μL of the collected mouse plasma sample, which was then vortex-mixed for 10 seconds. Thereafter, 200 μL of acetonitrile was added, vortexed during 20 min, and then centrifuged (1000 × g, 10 min). The supernatant (100 μL) was then transferred to insert placed in an autosampler vial, and a 10 μL volume of this was injected onto the HPLC column. Tissue samples were thawed before use, and whole hippocampus, striatum and frontal cortex were weighted and placed in a glass mortar and pestle tissue grinder and homogenized with an appropriate amount of phosphate buffer (pH 7.4) in 1:5 ratio. Afterward, 50 μL of tissue homogenates were transferred to new Eppendorf tubes and spiked with 5 μL of the internal standard working solution. All samples were stored on ice during the preparation process. This was followed by procedures like those described above.
The LC/ESI-MS/MS experiments were performed on an Applied Biosystems/MDS Sciex (Concord, Ontario, Canada) API 2000 triple quadrupole mass spectrometer equipped with an electrospray (ESI) ionization interface. This instrument was coupled to an Agilent 1100 (Agilent Technologies, Waldbronn, Germany) LC system. Data acquisition and processing were accomplished using Sciex Analyst 1.4.2 data collection and integration software.
An XBridge C18 (2.1 x 30 mm, 3.5 μm) analytical column (Waters, Milford, Massachusetts, USA) was used for compound separation. The temperatures of the column thermostat and the autosampler were set at 25°C and 10°C, respectively. The mobile phase consisted of a mixture of acetonitrile with addition of 0.1% formic acid (solvent A) and water with addition of 0.1% formic acid (solvent B) and was set at a flow rate of 0.6 mL/min. Starting amount of solvent A is 10%, isocratic elution from 0 to 3 min, and then gradient up to 90% of solvent A, and maintained to 10 min, and then gradient down to 10% of solvent A, and maintained to 15 min.
The ion source parameters were as follows: ion spray voltage: 5500 V; nebulizer gas (gas 1): 20 psi; turbo gas (gas 2): 25 psi; temperature of the heated nebulizer: 400°C; curtain gas: 40 psi; collision gas: 6 psi. Mass spectra were acquired by SRM with precursor/predominant product ion transitions for each analyte. The mass spectral Q1→Q3 transitions monitored for AZ-853, AZ-861 and for IS (nebivolol), were m/z 453.9→235.1; 504.3→285.1 and 406.2→151.1, respectively. The peak widths of precursor and product ions were set to 0.7 full width half-height. Quantification was done via peak area ratio.
Pharmacokinetic parameters were calculated by a non-compartmental approach from the average concentration values, using Phoenix WinNonlin software (Certara, Princeton, NJ 08540 USA). First order elimination rate constant (λz) was calculated by linear regression of time versus log concentration. Next, the area under the mean serum and tissue concentration versus time curve (AUC0→t) was estimated using the log-linear trapezoidal rule (1), where Ci is the plasma concentration measured at t1.
AUC0→t=∑i=1n((Ci+Ci+1)/2)∙(ti+1−ti). (1)
Area under the first-moment curve (AUMC0→t) was estimated by calculation of the total area under the first-moment curve using the Eq (2), where Ci is the plasma concentration measured at t1. AUMC0→t=∑i=1n((ti∙Ci+ti+1∙Ci+1)/2)∙(ti+1−ti). […]

A short description of data set [2]: Body weight measurement in the 17-day experiment. Type of data set: in vivo, Swiss albino mice. The following applies: mouse, 0.625 mg/kg. The protocol: The Swiss albino mice were used in the experiment. AZ-853 and AZ-861 were injected once daily for 16 consecutive days. On the 1st and 15th day the administration of the compounds, 18-h spontaneous animal activity was registered (see below). FST, as described earlier, was performed on the 14th day just before the next treatment. To ensure that the effects observed in FST are not the result of increased motility of animals, on the 13th day, just before the next administration, the locomotor activity was measured as described earlier, from 2 to 6 min after test start, i.e. in the period identical to the duration of FST. Blood and organ collection was performed on the 17th day at 24 h after the last dose and fasting.
The body weight was measured daily immediately prior to administration of the drugs. On the 17th day, the blood was collected from the Swiss albino mice sacrificed by decapitation 20 min after i.p. administration of heparin (2500 units/mouse) and then centrifuged at 600 × g (15 min, 4°C) to separate plasma. The liver, heart, and kidney were also collected and weighed.

Several values for one entry are separate records, joined by “and”; a condition that tells them apart may be missing. Equal values may be shown once. This continues a long series; more values of the same kind are listed elsewhere.

As for `Cn1c(=O)c2c(nc3n(CCCCN4CCN(c5ccccc5F)CC4)ccn23)n(C)c1=O` [AZ-853, 8-(4-(4-(2-fluorophenyl)piperazin-1-yl)butyl)-1,3-dimethyl-1H-imidazo[2,1-f]purine-2,4(3H,8H)-dione], the “Concentration, frontal cortex (individual animals)” value is 287.52 ng/mL and 304.17 ng/mL and 320.45 ng/mL and 333.56 ng/mL and 324.78 ng/mL in data set [1] (5 min); 27.82 ng/mL in data set [1] (240 min); 17.61 ng/mL and 16.44 ng/mL and 11.88 ng/mL and 10.46 ng/mL and 12.77 ng/mL in data set [1] (480 min). For the same compound, the “Concentration, hippocampus (individual animals)” value in data set [1] (5 min) is 183.51 ng/mL and 176.53 ng/mL and 161.56 ng/mL and 181.31 ng/mL and 236.67 ng/mL; in data set [1] (240 min) it was 9.98 ng/mL; in data set [1] (480 min), 2.02 ng/mL and 3.09 ng/mL and 3.05 ng/mL and 1.66 ng/mL and 1.14 ng/mL and 1.45 ng/mL. The “Concentration, plasma (individual animals)” value was 18.11 ng/mL and 19.41 ng/mL and 25.22 ng/mL and 26.33 ng/mL and 24.15 ng/mL in data set [1] (5 min); 0.39 ng/mL and 0.21 ng/mL and 0.38 ng/mL and 0.24 ng/mL and 0.27 ng/mL in data set [1] (480 min). In addition, the “Concentration, striatum (individual animals)” value in data set [1] (5 min) was 408.32 ng/mL and 297.74 ng/mL and 298.61 ng/mL and 409.37 ng/mL and 315.43 ng/mL; in data set [1] (240 min), 6.18 ng/mL; in data set [1] (480 min), 1.54 ng/mL and 1.66 ng/mL and 0.78 ng/mL and 0.89 ng/mL and 1.67 ng/mL and 1.85 ng/mL. Moreover, the body weight was 24.2 g (2×) and 24.4 g and 25.8 g and 24.0 g and 24.9 g and 23.7 g and 23.3 g and 25.4 g and 26.9 g in data set [2] (day 11, individual mouse); 24.9 g and 25.2 g and 26.7 g and 24.7 g and 26.4 g and 25.1 g and 24.5 g and 24.4 g and 26.1 g and 27.2 g in data set [2] (day 12, individual mouse); 24.7 g and 25.7 g and 26.3 g and 24.5 g and 26.4 g and 24.2 g and 24.8 g (2×) and 26.9 g and 27.1 g in data set [2] (day 13, individual mouse); 25.6 g and 26.5 g and 26.0 g (2×) and 25.0 g and 26.4 g and 24.3 g and 26.2 g and 25.5 g and 27.6 g in data set [2] (day 14, individual mouse); 25.1 g and 27.2 g and 27.0 g and 26.0 g and 26.9 g and 24.9 g and 26.3 g and 25.5 g and 25.6 g and 26.4 g in data set [2] (day 15, individual mouse).
